The values below come from PubChem BioAssay AID324 (DTP/NCI, 2004).

The list does not hold the whole screen: its compounds were picked by chemical class. Other doses and runs of a compound may be missing. T/C: endpoint of the treated group in % of that of the vehicle group. For survival time, this PubChem deposit counts one and a half times the control or more as active, and values a quarter to a half above the control carry no call in these data; other NCI protocols may use other cut-offs. Schedules are NCI's codes, taken here to give the interval after Q, in days (D) or hours (H), and the number of doses after X. Some entries show no survivor count and are marked so; the dose need not have been tolerated.

In the test the test system is CD2F1 mice, AMSA-resistant P388 leukemia ip, median survival T/C. Nature of the test: NCI In Vivo Anticancer Drug Screen. Data for tumor model P388 Leukemia resistant to AMSA; NSC 249992 (intraperitoneal) in CD2F1 (CDF1) mice. The note with it: T/C endpoint: median survival time, schedule: Q04DX003 (ip), vehicle: saline, higher T/C = longer survival. The method, then: The antitumor activity of compounds was measured in mice bearing transplantable tumors. Survival or tumor size were measured and the results are expressed as the measurement made in the treated group (T) divided by the measurement made in the vehicle treated control group (C). The tumor model used in this assay is P388 Leukemia resistant to AMSA; NSC 249992 (intraperitoneal) in CD2F1 (CDF1) mice

Consider `CC(=O)OCC12CCC(C)=CC1OC1C(O)C(OC(C)=O)C2(C)C12CO2` (stereo not drawn), for which the T/C runs as follows: (dose: 2.59 mg/kg/injection) 150 % of control [survivor count not shown]; (dose: 4.32 mg/kg/injection) 155 % of control [survivor count not shown]; (dose: 7.2 mg/kg/injection) 156 % of control [survivor count not shown].
